Earlier results in article PMC8566969, “Comparison of viral RNA–host protein interactomes across pathogenic RNA viruses informs rapid antiviral drug discovery for SARS-CoV-2” (Cell Research, 2021).

Molecular target: SARS-CoV-2 RNA interacting human proteins
Details: cited from earlier work

CC/C(=C(\c1ccccc1)c1ccc(OCCN(C)C)cc1)c1ccccc1 [tamoxifen]
ACT_VALUE, ACT_TYPE Kd: 9
